Where a sequence shows no end group, the ends are not given.
Test: general procedure: Fmoc solid-phase peptide synthesis; Rink Amide Pro-Tide resin (0.56 mmol/g); DIC / Oxyma Pure
Settings: whole synthesis, scale of the general procedure 0.1 mmol

## CHWYGYTPENVI
  crude LC-MS purity: purity 99%

## NCVVGYIGERCQ
  crude LC-MS purity: purity 99%

## CHWYGYTPQNVI
  crude LC-MS purity: purity 98%

— PMC12429880 (Molecules, 2025)
